According to article doi:10.1101/2022.03.26.485938:
These are yes or no findings as the source states them, for the method shown. For some of these results: Binding seen in cells or lysates may run through a third protein. Some binding calls cover weakened binding; strength is not graded here. For some of these results: Tags and fused reporters may be left off the sequences shown. One block for each substance: values may come before it.

Chains of the proteins cited; added tags and fusions are not shown.
UniProt F4IHJ0: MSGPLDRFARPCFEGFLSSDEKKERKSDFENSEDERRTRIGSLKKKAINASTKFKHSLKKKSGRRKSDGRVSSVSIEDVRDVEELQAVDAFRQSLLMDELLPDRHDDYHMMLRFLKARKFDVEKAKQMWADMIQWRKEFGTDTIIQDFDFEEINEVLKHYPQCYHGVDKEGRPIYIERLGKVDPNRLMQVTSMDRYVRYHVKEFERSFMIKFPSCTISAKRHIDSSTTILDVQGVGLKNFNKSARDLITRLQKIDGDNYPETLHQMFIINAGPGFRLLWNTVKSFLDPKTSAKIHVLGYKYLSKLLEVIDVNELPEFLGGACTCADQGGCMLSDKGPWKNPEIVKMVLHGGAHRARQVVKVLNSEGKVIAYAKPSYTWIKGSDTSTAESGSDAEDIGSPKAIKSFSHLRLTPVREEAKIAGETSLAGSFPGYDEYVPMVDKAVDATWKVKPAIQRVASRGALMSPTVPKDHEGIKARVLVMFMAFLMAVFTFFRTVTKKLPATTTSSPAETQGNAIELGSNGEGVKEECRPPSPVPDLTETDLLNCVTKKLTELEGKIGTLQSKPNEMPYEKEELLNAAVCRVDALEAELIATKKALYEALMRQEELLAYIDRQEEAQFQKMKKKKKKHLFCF
UniProt Q9LU77: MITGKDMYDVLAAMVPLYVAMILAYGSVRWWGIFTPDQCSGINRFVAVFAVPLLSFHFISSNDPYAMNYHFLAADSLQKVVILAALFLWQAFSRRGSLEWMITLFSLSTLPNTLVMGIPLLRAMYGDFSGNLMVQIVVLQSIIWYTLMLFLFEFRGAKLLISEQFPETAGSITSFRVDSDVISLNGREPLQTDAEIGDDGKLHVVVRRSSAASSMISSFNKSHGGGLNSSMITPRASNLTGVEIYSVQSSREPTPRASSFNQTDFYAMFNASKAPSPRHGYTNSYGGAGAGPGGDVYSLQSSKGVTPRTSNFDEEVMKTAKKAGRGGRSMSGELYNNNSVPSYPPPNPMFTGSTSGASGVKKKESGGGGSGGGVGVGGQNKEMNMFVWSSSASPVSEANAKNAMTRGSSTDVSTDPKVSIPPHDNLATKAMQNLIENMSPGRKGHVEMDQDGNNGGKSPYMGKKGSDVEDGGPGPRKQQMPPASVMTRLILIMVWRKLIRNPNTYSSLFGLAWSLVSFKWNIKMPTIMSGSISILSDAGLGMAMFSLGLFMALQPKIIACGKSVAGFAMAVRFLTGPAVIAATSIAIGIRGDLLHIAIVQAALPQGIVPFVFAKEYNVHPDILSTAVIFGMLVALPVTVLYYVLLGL

What was measured:
[1] = molecular target: GST-SFH8 (Arabidopsis thaliana) (UniProt F4IHJ0); experiment: native gel or EMSA
[2] = molecular target: T1, Clathrin Light Chain (CLC2)-GFP (Arabidopsis thaliana) (UniProt O04209); experiment: pull-down
T1 sequence: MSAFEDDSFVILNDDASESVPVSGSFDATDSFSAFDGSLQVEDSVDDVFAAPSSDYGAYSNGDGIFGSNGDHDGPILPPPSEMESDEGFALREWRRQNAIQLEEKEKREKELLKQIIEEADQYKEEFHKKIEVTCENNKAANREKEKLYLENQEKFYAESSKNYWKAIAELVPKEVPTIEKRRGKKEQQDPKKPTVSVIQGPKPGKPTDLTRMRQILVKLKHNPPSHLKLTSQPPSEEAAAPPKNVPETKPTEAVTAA

[3] = molecular target: T2, plasma membrane intrinsic protein 2a (PIP2a), GFP-tagged (Arabidopsis thaliana) (UniProt P43286); experiment: proximity ligation
T2 sequence: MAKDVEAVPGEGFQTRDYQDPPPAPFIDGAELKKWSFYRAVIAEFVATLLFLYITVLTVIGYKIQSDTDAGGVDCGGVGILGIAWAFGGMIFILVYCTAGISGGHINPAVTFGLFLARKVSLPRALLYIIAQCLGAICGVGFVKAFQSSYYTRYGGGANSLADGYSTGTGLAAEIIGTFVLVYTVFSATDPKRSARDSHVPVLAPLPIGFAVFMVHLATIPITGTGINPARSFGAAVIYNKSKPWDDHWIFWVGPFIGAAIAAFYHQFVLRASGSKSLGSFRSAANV

[4] = molecular target: PIN2-GFP (Arabidopsis thaliana) (UniProt Q9LU77); experiment: proximity ligation

binding [1]: binds weakly
binding [2]: no binding
Substance: GST-SFH8 (from UniProt F4IHJ0 1-633)

binding [3]: no binding
Substance: SFH8, native, detected with α-SFH8 (from UniProt F4IHJ0 1-633)

binding [4]: binds weakly
Substance: HF-SFH8 (from UniProt F4IHJ0 1-633)
